Test results published in article PMC4184701 (Pharmacology Research & Perspectives, 2014).

assay: Reaction with peroxyl radicals, AIBN-initiated autoxidation of styrene (oxygen uptake); details: autoxidation of styrene in chlorobenzene, 30°C

`CCN(Cc1ccccc1)Cc1ccc(-c2cc3cc(O)c(O)cc3oc2=O)cc1` [AP2469, 3-{4-[(Benzylethylamino)-methyl]phenyl}-6,7-dihydroxychromen-2-one] and `O=c1c(O)c(-c2ccc(O)c(O)c2)oc2cc(O)cc(O)c12` [Quercetin] are within error of each other in “n, number of radicals trapped by each antioxidant molecule” value: 1.9 ± 0.2 for the first, 2.1 ± 0.2 for the second.

For `Oc1ccccc1O` [Catechol], the “n, number of radicals trapped by each antioxidant molecule” value was 2.0 ± 0.2.
